PubChem BioAssay AID504774 – Drosophila RNAi Screening Center | 2011

Assay: 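Knock-downs that shift viability of MMS-exposed cells relative to untreated ones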 (primary screen)
System: Drosophila Kc167 cells
Reagents: long dsRNA against Drosophila genes, about 0.25 µg dsRNA per well
Time to read-out: about 6 days: 3 days knock-down, then 3 days with or without MMS
Treatment: methyl methanesulphonate 0.004% (w/v) for 3 days after knock-down
Measurement: 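ATP-dependent luminescence as a measure of live cells in MMS-exposed wells, quantile normalised within each plate, with replicate values also given as a mean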
Scale: mean viability with MMS and viability with MMS: higher = more surviving cells after MMS
The deposit covers about 23,000 reagents; this is a random part of those with a known target gene and a result. 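Values are quantile-normalised luminescence on an arbitrary scale; higher means more cells surviving MMS.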 A plus sign joins genes that one reagent is predicted to hit.

gene | dsRNA | mean viability with MMS | viability with MMS, replicate 1 | viability with MMS, replicate 2
Coq4 + frc | DRSC10381 | 3.41e6 | 3.83e6 | 3.85e6
Coq4 + frc | DRSC10382 | 3.45e6 | 3.83e6 | 3.94e6
CG9992 | DRSC20226 | 3.43e6 | 3.98e6 | 3.96e6
CG9992 | DRSC21643 | 3.55e6 | 4.01e6 | 4.05e6
Inx6 | DRSC20579 | 3.44e6 | 3.90e6 | 3.90e6
CG5567 | DRSC10517 | 3.62e6 | 4.25e6 | 3.94e6
CG5815 | DRSC14135 | 3.60e6 | 4.16e6 | 3.99e6
Lamp1 | DRSC03727 | 3.56e6 | 4.17e6 | 3.90e6
Cyp4ac1 | DRSC03302 | 3.68e6 | 4.16e6 | 4.25e6
CG15167 | DRSC02468 | 3.58e6 | 4.08e6 | 4.05e6
alpha-Est8 | DRSC12620 | 3.57e6 | 4.03e6 | 4.08e6
Ntf-2r | DRSC02019 | 3.33e6 | 3.66e6 | 3.83e6
CG13001 | DRSC19520 | 3.57e6 | 3.99e6 | 4.10e6
CG13001 | DRSC22443 | 3.68e6 | 4.18e6 | 4.07e6
CG8192 | DRSC07101 | 3.19e6 | 3.67e6 | 3.75e6
CG1636 | DRSC18111 | 3.65e6 | 4.09e6 | 4.14e6
RabX6 | DRSC08223 | 3.41e6 | 3.86e6 | 3.86e6
CG6928 | DRSC10749 | 3.67e6 | 4.26e6 | 4.08e6
CG7860 | DRSC20060 | 3.56e6 | 4.18e6 | 4.08e6
CG8635 | DRSC07226 | 3.60e6 | 4.08e6 | 4.09e6
Rtel1 | DRSC18343 | 3.53e6 | 4.20e6 | 3.82e6
CG5989 | DRSC10565 | 3.49e6 | 3.93e6 | 3.98e6
CG7639 | DRSC07026 | 3.54e6 | 4.11e6 | 3.95e6
mmm | DRSC10208 | 3.52e6 | 4.12e6 | 3.87e6
CG3306 | DRSC10357 | 3.50e6 | 3.98e6 | 3.96e6
CG34256 | DRSC09582 | 3.63e6 | 4.33e6 | 3.90e6
peng | DRSC20583 | 3.56e6 | 4.04e6 | 4.03e6
CG15870 | DRSC06588 | 3.53e6 | 3.92e6 | 4.04e6
Tpc2 | DRSC04322 | 3.37e6 | 3.75e6 | 3.81e6
NAT1 | DRSC06854 | 3.34e6 | 3.76e6 | 3.79e6
Sgf11 | DRSC09987 | 3.47e6 | 3.91e6 | 3.94e6
CG7518 | DRSC16253 | 3.48e6 | 3.91e6 | 3.95e6
EndoG | DRSC07292 | 3.77e6 | 4.22e6 | 4.31e6
EndoG | DRSC22746 | 3.50e6 | 3.89e6 | 4.07e6
CG34345 | DRSC02126 | 3.59e6 | 4.08e6 | 4.05e6
RpS12 | DRSC11270 | 3.13e6 | 3.66e6 | 3.61e6
osk | DRSC17023 | 3.68e6 | 4.26e6 | 4.10e6

10 successive reagents already listed, quoted:
gene | dsRNA | mean viability with MMS | viability with MMS, replicate 1 | viability with MMS, replicate 2
CG6928 | DRSC10749 | 3.67e6 | 4.26e6 | 4.08e6
CG7860 | DRSC20060 | 3.56e6 | 4.18e6 | 4.08e6
CG8635 | DRSC07226 | 3.60e6 | 4.08e6 | 4.09e6
Rtel1 | DRSC18343 | 3.53e6 | 4.20e6 | 3.82e6
CG5989 | DRSC10565 | 3.49e6 | 3.93e6 | 3.98e6
CG7639 | DRSC07026 | 3.54e6 | 4.11e6 | 3.95e6
mmm | DRSC10208 | 3.52e6 | 4.12e6 | 3.87e6
CG3306 | DRSC10357 | 3.50e6 | 3.98e6 | 3.96e6
CG34256 | DRSC09582 | 3.63e6 | 4.33e6 | 3.90e6
peng | DRSC20583 | 3.56e6 | 4.04e6 | 4.03e6

The listing continues:
gene | dsRNA | mean viability with MMS | viability with MMS, replicate 1 | viability with MMS, replicate 2
CR31958 | DRSC00282 | 3.52e6 | 3.91e6 | 4.06e6
CR31958 | DRSC21858 | 3.56e6 | 4.05e6 | 4.01e6
TTLL3A | DRSC02143 | 3.50e6 | 3.94e6 | 4.00e6
rost | DRSC03603 | 3.64e6 | 4.29e6 | 4.00e6
CG12229 | DRSC09868 | 3.64e6 | 4.12e6 | 4.10e6
hoe2 | DRSC00459 | 3.67e6 | 4.15e6 | 4.12e6
CG14693 | DRSC14916 | 3.52e6 | 3.96e6 | 4.03e6
CG3529 | DRSC10369 | 3.48e6 | 3.87e6 | 4.01e6
CG43316 | DRSC06296 | 3.72e6 | 4.23e6 | 4.32e6
CG43316 | DRSC06297 | 3.53e6 | 4.16e6 | 3.92e6
CG34046 (retired record) | DRSC14075 | 3.60e6 | 4.03e6 | 4.09e6
CG11192 | DRSC06057 | 3.37e6 | 3.82e6 | 3.77e6
CG13032 | DRSC09912 | 3.65e6 | 4.18e6 | 4.06e6
CG14780 | DRSC18566 | 3.55e6 | 4.16e6 | 3.91e6
Treh | DRSC04548 | 3.67e6 | 4.13e6 | 4.24e6
cnir | DRSC00499 | 3.87e6 | 4.45e6 | 4.18e6
SoYb | DRSC02901 | 3.65e6 | 4.32e6 | 3.96e6
CG30375 | DRSC06834 | 3.67e6 | 4.07e6 | 4.16e6
CG6005 | DRSC15945 | 3.60e6 | 4.12e6 | 4.02e6
Srp68 | DRSC10475 | 3.59e6 | 4.00e6 | 4.14e6
CG6428 | DRSC18402 | 3.69e6 | 4.23e6 | 4.16e6
nAChRalpha4 | DRSC11925 | 3.48e6 | 4.05e6 | 3.86e6
CG31612 | DRSC03697 | 3.70e6 | 4.02e6 | 4.13e6
CG31612 | DRSC03698 | 3.56e6 | 4.07e6 | 4.01e6
SAK | DRSC11879 | 3.49e6 | 3.95e6 | 3.94e6
SAK | DRSC23329 | 3.70e6 | 4.18e6 | 4.22e6
CG3868 | DRSC10380 | 3.65e6 | 4.18e6 | 4.07e6
Sdhaf3 | DRSC15020 | 3.15e6 | 3.59e6 | 3.59e6
NANS | DRSC15743 | 3.66e6 | 4.10e6 | 4.11e6
CG14187 | DRSC10186 | 3.48e6 | 3.93e6 | 3.93e6
Mst36Fa | DRSC21564 | 3.55e6 | 4.02e6 | 4.04e6
